Where two headings read alike, the source gives them in different places. No constants are given. Whether binding was seen depends on the method and setting. In cells and extracts the contact can be indirect. These calls come from enrichment with a bait or labelling near it, and not all partners need be listed.
What was measured:
[1] = target: FLAG-tagged OSBPL2 (oxysterol-binding protein-like 2) (UniProt Q9H1P3); assay: affinity purification with mass spectrometry; lysate of HEK293T cells transfected with FLAG-tagged OSBPL2, immunoprecipitated with anti-FLAG-tag M2 antibody (normal IgG as negative control); protein bands analysed by LC-MS/MS
[2] = target: FLAG-tagged OSBPL2 (oxysterol-binding protein-like 2) (UniProt Q9H1P3); assay: as above; remark: listed apart in the source

Chains of the proteins cited; added tags and fusions are not shown.
UniProt Q9H1P3: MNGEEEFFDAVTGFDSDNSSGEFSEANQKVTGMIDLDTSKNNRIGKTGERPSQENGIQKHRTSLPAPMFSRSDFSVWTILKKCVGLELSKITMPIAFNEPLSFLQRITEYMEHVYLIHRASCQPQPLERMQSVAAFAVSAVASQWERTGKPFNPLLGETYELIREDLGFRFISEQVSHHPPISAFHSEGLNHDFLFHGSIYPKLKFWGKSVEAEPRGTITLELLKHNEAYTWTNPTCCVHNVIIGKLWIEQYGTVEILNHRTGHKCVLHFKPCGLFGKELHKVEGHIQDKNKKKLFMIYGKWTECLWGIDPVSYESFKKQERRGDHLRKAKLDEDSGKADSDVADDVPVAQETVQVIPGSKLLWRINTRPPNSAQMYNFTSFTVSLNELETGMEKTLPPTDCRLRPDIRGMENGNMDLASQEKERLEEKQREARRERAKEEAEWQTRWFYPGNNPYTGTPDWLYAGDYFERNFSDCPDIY
UniProt Q9Y5T5: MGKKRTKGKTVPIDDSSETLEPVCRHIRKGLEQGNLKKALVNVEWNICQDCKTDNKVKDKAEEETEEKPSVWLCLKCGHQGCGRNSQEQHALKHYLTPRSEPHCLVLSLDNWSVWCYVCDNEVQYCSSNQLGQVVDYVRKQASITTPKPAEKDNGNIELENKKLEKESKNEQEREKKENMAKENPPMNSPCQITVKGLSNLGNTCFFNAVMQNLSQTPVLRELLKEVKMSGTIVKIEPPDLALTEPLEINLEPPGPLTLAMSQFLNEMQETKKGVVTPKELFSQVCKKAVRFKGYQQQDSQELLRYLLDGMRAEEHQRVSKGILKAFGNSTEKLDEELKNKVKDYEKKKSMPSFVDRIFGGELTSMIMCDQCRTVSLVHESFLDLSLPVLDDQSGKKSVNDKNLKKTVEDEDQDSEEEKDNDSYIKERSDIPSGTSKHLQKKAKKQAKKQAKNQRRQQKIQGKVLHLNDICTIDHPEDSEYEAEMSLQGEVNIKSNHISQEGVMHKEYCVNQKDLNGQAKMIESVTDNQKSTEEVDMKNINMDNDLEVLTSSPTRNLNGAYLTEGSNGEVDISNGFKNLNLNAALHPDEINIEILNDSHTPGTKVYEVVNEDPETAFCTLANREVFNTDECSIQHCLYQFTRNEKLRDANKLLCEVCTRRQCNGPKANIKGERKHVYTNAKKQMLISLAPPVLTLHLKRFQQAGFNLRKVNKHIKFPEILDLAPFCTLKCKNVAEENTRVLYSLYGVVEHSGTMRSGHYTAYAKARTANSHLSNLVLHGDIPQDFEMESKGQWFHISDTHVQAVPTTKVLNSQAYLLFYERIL
UniProt P35222: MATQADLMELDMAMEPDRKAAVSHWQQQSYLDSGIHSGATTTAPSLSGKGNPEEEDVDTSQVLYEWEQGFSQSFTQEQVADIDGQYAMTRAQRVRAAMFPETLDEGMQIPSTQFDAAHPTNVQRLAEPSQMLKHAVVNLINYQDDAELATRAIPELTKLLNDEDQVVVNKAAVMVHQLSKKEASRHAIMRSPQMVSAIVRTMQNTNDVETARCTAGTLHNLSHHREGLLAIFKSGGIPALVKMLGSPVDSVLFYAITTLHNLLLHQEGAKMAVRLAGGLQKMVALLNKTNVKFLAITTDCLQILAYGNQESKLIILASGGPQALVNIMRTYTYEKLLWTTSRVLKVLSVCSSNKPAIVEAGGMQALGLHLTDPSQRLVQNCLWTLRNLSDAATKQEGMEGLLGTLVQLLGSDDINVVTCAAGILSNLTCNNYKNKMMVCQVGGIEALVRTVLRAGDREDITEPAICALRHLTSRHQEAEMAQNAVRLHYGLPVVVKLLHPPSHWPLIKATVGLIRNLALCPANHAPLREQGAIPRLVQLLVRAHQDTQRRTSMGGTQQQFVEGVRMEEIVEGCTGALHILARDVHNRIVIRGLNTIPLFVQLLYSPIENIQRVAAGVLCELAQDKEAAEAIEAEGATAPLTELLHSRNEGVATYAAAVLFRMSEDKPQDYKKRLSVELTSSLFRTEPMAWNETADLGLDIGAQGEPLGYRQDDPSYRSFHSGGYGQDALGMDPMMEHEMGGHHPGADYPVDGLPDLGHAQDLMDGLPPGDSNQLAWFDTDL

Row | Molecule | binding [1] | binding [2]
1 | USP16 (from UniProt Q9Y5T5 1-823) | binds | 
2 | β-catenin found in the OSBPL2 interactome of HEK293T cells (from UniProt P35222 1-781) | binds | 
3 | USP39 (protein, UniProt Q53GS9 1-565) MSGRSKRESRGSTRGKRESESRGSSGRVKRERDREREPEAASSRGSPVRVKREFEPASAREAPASVVPFVRVKREREVDEDSEPEREVRAKNGRVDSEDRRSRHCPYLDTINRSVLDFDFEKLCSISLSHINAYACLVCGKYFQGRGLKSHAYIHSVQFSHHVFLNLHTLKFYCLPDNYEIIDSSLEDITYVLKPTFTKQQIANLDKQAKLSRAYDGTTYLPGIVGLNNIKANDYANAVLQALSNVPPLRNYFLEEDNYKNIKRPPGDIMFLLVQRFGELMRKLWNPRNFKAHVSPHEMLQAVVLCSKKTFQITKQGDGVDFLSWFLNALHSALGGTKKKKKTIVTDVFQGSMRIFTKKLPHPDLPAEEKEQLLHNDEYQETMVESTFMYLTLDLPTAPLYKDEKEQLIIPQVPLFNILAKFNGITEKEYKTYKENFLKRFQLTKLPPYLIFCIKRFTKNNFFVEKNPTIVNFPITNVDLREYLSEEVQAVHKNTTYDLIANIVHDGKPSEGSYRIHVLHHGTGKWYELQDLQVTDILPQMITLSEAYIQIWKRRDNDETNQQGA |  | binds

Reference: article PMC8129138
